About 170 (0.05%) of roughly 340,000 compounds were called active. The shares of active, inactive and inconclusive entries below differ from those in the screen. Calls come from the whole dose curve; as a rule, active = well fitted inhibition curve with a large enough effect in the signal ratio, with a control signal flat (not every such curve was filed as active); inconclusive = small, poorly fitted or top-dose-only effect, or effect the other way, or a change in a side signal; inactive = flat fitted curve, though single readings scatter; the % refers to the signal ratio. Potencies of inconclusive entries are doubtful fits and often do not repeat.
assay: qHTS Assay to Find Inhibitors of Chronic Active B-Cell Receptor Signaling; conditions: ABC-DLBCL IkBa-CBG/CBR reporter, luminescence ratio (green luciferase fused to IkBa over red control in TMD8 lymphoma cells), 4 h; activity change, negative = inhibition: at 46.1 µM (top of the series);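 for activity change, negative = inhibition: plate controls were basal doxycycline-induced cells for no effect and cells given 10 µM MG132 for full effect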
Method in brief: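 Concentration-response series (up to 46 uM) were applied to TMD8 dual-reporter cells for 4 h at 37C with doxycycline. Green/red ratio, after filter-overlap correction, defined %Activity; red signal alone was normalised to basal cells and zero luminescence.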
Potency is the fitted concentration of half-maximal effect.

Compound | activity change, negative = inhibition | Potency
CC1CCC2(CC1)NC(=O)N(CC(=O)Nc1cccc(C#N)c1)C2=O (stereo unspecified) | inactive | 
COc1ccc(-c2c(C)n([O-])c(C)c(C)[n+]2=O)cc1 | inconclusive: 16% | 
O=C(Nc1cnc2ccccc2c1)c1cccc(-n2cnnn2)c1 | inconclusive: -16.9% | 
COc1ccc(OC)c(NC(=O)C2CCN(c3cc(-c4ccccc4)nc4ncnn34)CC2)c1 | inconclusive: -16.9% | 
O=C(CSc1cccc[n+]1[O-])NN(c1ccccc1)c1ccccc1 | inconclusive: 1.94% | 
COc1ccc(C(=O)/C=C/c2ccc(O)cc2)c2c1CC(O)C(C)(C)O2 (stereo unspecified) |  | inconclusive: 23.1 µM [falling, single point]
Cc1ccc(O)c(C2=NCCNC(C(F)(F)C(F)F)=C2)c1 | inconclusive: 24.2% | 
Cc1cc(Cl)cc(Cl)c1OCC(=O)NCc1ccco1 | inconclusive: -21.9% | 
CC(C)OCCOc1ccc2oc(-c3ccco3)cc(=O)c2c1 |  | inconclusive: 11.2 µM [rising, partial curve, poor fit]
Cc1ccc(OCC(=O)Nc2cccnc2Cl)cc1C |  | inconclusive: 35.5 µM [falling, single point]
COc1ccc2nc(N3CCC(O)CC3)c(C#N)cc2c1 | inconclusive: 2.05% | 
O=C(CN1CCN(c2ccc(F)cc2)CC1)N1CCC(Cc2ccccc2)CC1 | inactive | 
CCOc1ccc(N=C(/C(C(=O)C(=O)N2CCOCC2)=C(\O)c2ccccc2)c2ccccc2)cc1 |  | inconclusive: 18.4 µM [falling, single point]
COc1ccc(NC(=S)NC(=O)Cc2ccccc2)cc1 | inactive | 
CC(C)(CNC(=O)c1ccc(-c2ccccc2Cl)o1)N1CCOCC1 | inconclusive: 4.93% | 
Cc1ccc(C(=O)NCC(=O)OCC(=O)c2c(N)n(C)c(=O)n(C)c2=O)s1 | inconclusive: 10.7% | 
O=Nc1c2nc3ccccc3n(O)c-2c2ccccc12 |  | inconclusive: 11.2 µM [falling, single point]
CCOCCCNc1nc(-c2ccccc2)nc2ccccc12 | inconclusive: -0.874% | 
Clc1ccc(-n2cnnn2)cc1 | inconclusive: 6.1% | 
NC(=O)N/N=C(/CCCCCC/C(=N\NC(N)=O)c1ccccc1)c1ccccc1 | inconclusive: -22.5% | 
O=C(CCC1CCCN(Cc2cccc(Cl)c2)C1)NCc1ccccc1F (stereo unspecified) | inconclusive: -3.41% | 
Cn1nccc1C(=O)NC(=S)Nc1cc(Cl)cc(Cl)c1 | inconclusive: 3.06% | 
CCCn1c(=C(C#N)C#N)s/c(=C2\C=Cc3ccccc3N2CC)c1=O | inconclusive: -13.8% | 
Cc1ccc(-c2cc(C(=O)Nc3nccs3)c3ccccc3n2)o1 | inconclusive: 0.642% | 
COc1ccc(F)cc1S(=O)(=O)NCC(c1ccco1)S(=O)(=O)c1ccc(F)cc1 (stereo unspecified) |  | inconclusive: 3.55 µM [falling, single point]
COc1ccc2c(c1)c(=O)cc(C)n2CC(=O)NCc1ccco1 | inconclusive: 25% | 

Compound | activity change, negative = inhibition | Potency
Cc1cccc(COCC(Cc2ccccc2)N2CCN(C(=O)c3ccc(C(F)(F)F)cc3)CCC2=O)c1 (stereo unspecified) | inconclusive: -17.2% | 
Cc1ccc(C(=O)Cc2nnc(C)s2)cc1 | inconclusive: -12.3% | 
CC1CCN(c2ncnc3c2cnn3-c2ccc(F)cc2)CC1 | inactive | 
Fc1cc(F)c(C2SCCN2C(=S)Nc2cccc(C(F)(F)F)c2)c(F)c1 (stereo unspecified) | inconclusive: 0.68% | 
Cc1c2c(n3c(nc4ccccc43)c1C#N)N(CCCN(C)C)CC2 |  | inconclusive: 3.16 µM [rising, partial curve, poor fit]
Cc1ccsc1C(=O)N/N=C/C=C/c1ccccc1[N+](=O)[O-] |  | inconclusive: 25.9 µM [rising, single point]
COc1ccc(C(=O)CN2CCN(S(=O)(=O)c3ccc(C(C)C)cc3)CC2)cc1 | inconclusive: -6.54% | 
COC(=O)c1ccc2c(=O)n(Cc3ccc(C(=O)NCCCN4CCC(C)CC4)cc3)c(=S)[nH]c2c1 |  | inconclusive: 8.91 µM [falling, partial curve]
CC(=O)N(Cc1cc(=O)[nH]c2ccccc12)c1ccc(C)cc1C | inconclusive: -11.3% | 
CCn1c(NCCc2ccc(OC)c(OC)c2)nc2c1c(=O)n(C)c(=O)n2C | inconclusive: 19.5% | 
CC(C)(C)[C@H]1COC(=O)[C@H](NC(=O)OCC2c3ccccc3-c3ccccc32)C/C=C\C[C@@H](CC(=O)N(CCO)Cc2ccccc2)C(=O)N1 | inconclusive: -18.1% | 
COc1cc(/C=C(/C#N)C(=O)Nc2ccc(C)cc2)ccc1Oc1nc(Cl)ncc1F | inconclusive: -0.689% | 
COc1ccc(CCCc2nnc(SCC(=O)N/N=C\c3ccc(O)c(OC)c3)o2)cc1C |  | inconclusive: 35.5 µM [falling, single point]
Cc1cc(NC(=O)CSc2ccc(-c3ccc(F)cc3)nn2)no1 | inactive | 
CC(C)[C@@H]1CC[C@@H](C)c2c(-c3ccccc3)n[nH]c21 | inconclusive: 15.1% | 
COc1ccccc1C(=O)Nc1ccc(S(=O)(=O)N2CCCC2)cc1 | inconclusive: -0.241% | 
O=C(COc1ncnc2sccc12)N1CCN(C(=O)c2ccco2)CC1 | inconclusive: -0.0357% | 
CCOC(=O)C1(CCc2ccccc2)CCN(Cc2ccc(C(=O)OC)cc2)CC1 | inactive | 
CC(C)(C)n1ncc2c(=O)n(CC(=O)NCc3ccco3)cnc21 | inactive | 
Cc1ccc(CNC(=O)c2cc3c(=O)n(C)c4ccccc4c3n2C)o1 | inactive | 
Cn1/c(=N/NC(=O)c2cccc(OC(F)F)c2)sc2ccccc21 | inactive | 
CCOc1cc(N2CCOCC2)c(OCC)cc1NC(=O)CN1C(=O)NC2(CCCCC2)C1=O | inconclusive: -0.22% | 
Cc1cc(N)n(-c2cc(C)c3ccccc3n2)n1 |  | inconclusive: 22.4 µM [falling, partial curve]
CCOC(=O)c1sc(NC(=O)C(CC)Sc2nnc3c4ccccc4n(CC)c3n2)nc1C (stereo unspecified) | inactive | 
Cn1c2ccccc2c2c(C(=O)N3CCN(c4ccccc4)CC3)cn(C3CCCC3)c(=O)c21 | inconclusive: 2.29% | 

Reference: PubChem BioAssay AID493014 (National Center for Advancing Translational Sciences (NCATS), 2011)
